Data as given in PubChem BioAssay AID602196 (INSERM, 2012).

Purpose: 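Genes whose knock-down alters cisplatin killing of lung cancer cells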
System: human A549 lung cancer cells
Knock-down reagent: siRNA pair against human genes
Duration: 48 h transfection before cisplatin; time from cisplatin to read-out not stated
Conditions: cisplatin at a dose killing half of control-siRNA cells; exact dose and duration not given
Read-out: 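Shift in cisplatin death relative to control siRNA, from -50 (all cells die) to +50 (no cells die); siRNAs harmful on their own scored 0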
Reading the numbers: two-siRNA summed score (-2 to +2): higher = both siRNAs protect from cisplatin killing; -2 means both sensitise; mean protection from cisplatin (shift in death) and protection from cisplatin (shift in death), siRNA C and protection from cisplatin (shift in death), siRNA D: higher = protection from cisplatin killing
Hit rule: 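Each siRNA scores 0 if harmful alone by LDH or WST-1, otherwise +1 if it reduces and -1 if it increases cisplatin killing; a gene is active when both siRNAs agree (sum +2 or -2)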
Calls: active = both siRNAs shift cisplatin killing the same way; inactive = no consistent shift, or siRNA harmful alone
The whole screen tested about 23,000 reagents; this is a random part of them. 455 of them (2%) were called active. 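Active includes both protection and sensitisation; some change values fall well beyond the stated -50 to +50 range.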 Not stated in the record: the amount of reagent.

Target gene,PubChem SID,two-siRNA summed score (-2 to +2),mean protection from cisplatin (shift in death) (%),"protection from cisplatin (shift in death), siRNA C (%)","protection from cisplatin (shift in death), siRNA D (%)",call
SH3GL2 (GeneID 6456),SID131504015,0,-6.8,-11.9,-1.7,inactive
ITPRIP (GeneID 85450),SID131521822,1,15,10.8,19.2,inactive
CLDND1 (GeneID 56650),SID131518076,0,16.3,34.7,-2.1,inactive
AARSD1 (GeneID 80755),SID131512617,0,5.7,7.1,4.3,inactive
SLC25A24 (GeneID 29957),SID131515547,0,9.3,4.3,14.4,inactive
LMTK2 (GeneID 22853),SID131507003,0,-0.7,6.9,-8.2,inactive
PDCD1LG2 (GeneID 80380),SID131513432,0,6.6,-5.1,18.2,inactive
PHTF1 (GeneID 10745),SID131523202,2,25.4,28.1,22.7,active
UBA6 (GeneID 55236),SID131501307,-1,-10.6,-15.7,-5.5,inactive
IFRD1 (GeneID 3475),SID131514989,0,8.5,12.6,4.4,inactive
GIPC3 (GeneID 126326),SID131513593,0,6.8,7,6.5,inactive
SERPI-11,SID131500775,-1,-16.2,-5.8,-26.5,inactive
NUP160 (GeneID 23279),SID131516180,0,10.4,3.8,17,inactive
TPM3 (GeneID 7170),SID131523201,2,25.3,14.9,35.7,active
AQP8 (GeneID 343),SID131521624,1,14.2,21.4,7,inactive
IBSP (GeneID 3381),SID131511186,0,4.1,-3.3,11.4,inactive
LOC157813,SID131518462,0,20.1,17.3,22.8,inactive
HLA-DOA (GeneID 3111),SID131510453,0,3.3,4.3,2.3,inactive
DNAJC5G (GeneID 285126),SID131512320,0,5.3,3.8,6.9,inactive
RETSAT (GeneID 54884),SID131501070,-1,-12.6,-5,-20.3,inactive
MARCHF5 (GeneID 54708),SID131508810,0,1.5,1.8,1.2,inactive
NLN (GeneID 57486),SID131503402,0,-10.3,-9.7,-10.9,inactive
KIAA0420,SID131522660,1,21.4,13.2,29.6,inactive
RFXANK (GeneID 8625),SID131502841,0,-24.2,-40.3,-8.2,inactive
CTNNA2 (GeneID 1496),SID131506407,0,-1.6,-0.1,-3.1,inactive
PRMT8 (GeneID 56341),SID131500695,-1,-17.6,1.1,-36.3,inactive
LOC401621,SID131516016,0,10.1,11.7,8.5,inactive
LOC391667,SID131522740,1,22.8,33.3,12.3,inactive
DMRTA1 (GeneID 63951),SID131504793,0,-4.5,2,-10.9,inactive
PRICKLE2 (GeneID 166336),SID131517087,0,12.4,26.2,-1.5,inactive
ZNF384 (GeneID 171017),SID131504361,0,-5.6,-8.5,-2.8,inactive
ATP5PO (GeneID 539),SID131504993,0,-4,-10,2,inactive
CCDC74B (GeneID 91409),SID131522725,1,22.4,17.7,27.1,inactive
TMC8 (GeneID 147138),SID131514378,0,7.7,10.5,5,inactive
H2BC13 (GeneID 8340),SID131518234,0,17.4,24.6,10.2,inactive
GALNT7 (GeneID 51809),SID131517345,0,13.1,14,12.3,inactive
FLJ32731,SID131506007,0,-2.2,6.3,-10.6,inactive
RAB39B (GeneID 116442),SID131513860,0,7.1,2.4,11.8,inactive
PCNT (GeneID 5116),SID131513798,0,7,3.6,10.4,inactive
LOC402716,SID131515715,0,9.6,8.6,10.6,inactive
OR5H14 (GeneID 403273),SID131505794,0,-2.6,-15.1,10,inactive
CELA3A (GeneID 10136),SID131502767,-1,8.4,28.5,-11.6,inactive
DUSP26 (GeneID 78986),SID131501332,-1,-10.5,-2.6,-18.4,inactive
SLC25A26 (GeneID 115286),SID131510926,0,3.8,-0.2,7.7,inactive
EPS15 (GeneID 2060),SID131509084,0,1.8,4.3,-0.7,inactive
ASCC3 (GeneID 10973),SID131513273,0,6.4,9.2,3.6,inactive
ASCC3 (GeneID 10973),SID131520198,1,9,13.5,4.6,inactive
OTOP1 (GeneID 133060),SID131503751,0,-8,0.9,-17,inactive
PLEKHG1 (GeneID 57480),SID131520136,1,8.8,3.5,14.1,inactive
SH2D3A (GeneID 10045),SID131500563,-1,-21.3,-30.9,-11.6,inactive
IFT70B (GeneID 150737),SID131506716,0,-1.1,11.3,-13.5,inactive
CDKN2D (GeneID 1032),SID131501181,-1,-11.7,-18.2,-5.2,inactive
OR10K1 (GeneID 391109),SID131516858,0,11.8,9.9,13.8,inactive
ARPC1A (GeneID 10552),SID131509362,0,2.1,-2.2,6.3,inactive
LOC440161,SID131517509,0,13.7,13.8,13.5,inactive
DBT (GeneID 1629),SID131514208,0,7.5,18.5,-3.5,inactive
PLXDC2 (GeneID 84898),SID131516810,0,11.7,11,12.4,inactive
TMEM135 (GeneID 65084),SID131509895,0,2.6,3.3,1.9,inactive
LOC389102,SID131501726,-1,-7.7,6,-21.5,inactive
SPANXA1 (GeneID 30014),SID131518450,0,19.9,21.3,18.5,inactive
CCL26 (GeneID 10344),SID131501163,-1,-11.9,5,-28.7,inactive
GIMAP2 (GeneID 26157),SID131514763,0,8.2,6.7,9.8,inactive
MIER1 (GeneID 57708),SID131514155,0,7.4,13.2,1.7,inactive
DTX4 (GeneID 23220),SID131502878,0,-20.5,8.6,-49.7,inactive
RPL38 (GeneID 6169),SID131518672,0,24,25.7,22.3,inactive
HCN2 (GeneID 610),SID131505583,0,-2.9,-8.1,2.3,inactive
CEP70 (GeneID 80321),SID131511855,0,4.8,18.1,-8.4,inactive
NPW (GeneID 283869),SID131516966,0,12.1,8.1,16,inactive
DOCK9 (GeneID 23348),SID131512629,0,5.7,6.3,5.1,inactive
PPAT (GeneID 5471),SID131503288,0,-11.3,-10.6,-12,inactive
RXFP1 (GeneID 59350),SID131515622,0,9.4,10.6,8.3,inactive
SLC5A10 (GeneID 125206),SID131515433,0,9.2,22.6,-4.2,inactive
LINC01341 (GeneID 149134),SID131512826,0,5.9,11.4,0.4,inactive

In a second layout: entries from further up
PLEKHG1 (GeneID 57480) [SID131520136] | two-siRNA summed score (-2 to +2): 1; mean protection from cisplatin (shift in death) (%): 8.8; protection from cisplatin (shift in death), siRNA C (%): 3.5; protection from cisplatin (shift in death), siRNA D (%): 14.1; call: inactive
SH2D3A (GeneID 10045) [SID131500563] | two-siRNA summed score (-2 to +2): -1; mean protection from cisplatin (shift in death) (%): -21.3; protection from cisplatin (shift in death), siRNA C (%): -30.9; protection from cisplatin (shift in death), siRNA D (%): -11.6; call: inactive
IFT70B (GeneID 150737) [SID131506716] | two-siRNA summed score (-2 to +2): 0; mean protection from cisplatin (shift in death) (%): -1.1; protection from cisplatin (shift in death), siRNA C (%): 11.3; protection from cisplatin (shift in death), siRNA D (%): -13.5; call: inactive
CDKN2D (GeneID 1032) [SID131501181] | two-siRNA summed score (-2 to +2): -1; mean protection from cisplatin (shift in death) (%): -11.7; protection from cisplatin (shift in death), siRNA C (%): -18.2; protection from cisplatin (shift in death), siRNA D (%): -5.2; call: inactive
OR10K1 (GeneID 391109) [SID131516858] | two-siRNA summed score (-2 to +2): 0; mean protection from cisplatin (shift in death) (%): 11.8; protection from cisplatin (shift in death), siRNA C (%): 9.9; protection from cisplatin (shift in death), siRNA D (%): 13.8; call: inactive
